In article PMC3254606:
These are yes or no findings as the source states them, for the method shown. Some entries that bind do so weakly or less than the wild type.

By UniProt entry, the sequences of proteins in these tests, tags left out. Residues count along the entry.
UniProt P00519, residues 61-121: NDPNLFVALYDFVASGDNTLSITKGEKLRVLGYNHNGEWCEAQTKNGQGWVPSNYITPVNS
UniProt P54094: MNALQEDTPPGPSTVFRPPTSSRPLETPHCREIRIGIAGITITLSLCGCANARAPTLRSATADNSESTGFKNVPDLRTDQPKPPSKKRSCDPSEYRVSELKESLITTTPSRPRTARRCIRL

Target: SH3 domain of Abl (UniProt P00519)
Assay: peptide or protein array; TransSignal SH3 Domain Array1 probed with apoptin; preliminary experiment, data not shown; called highly stringent

apoptin (probe of the SH3 domain array) (from UniProt P54094 1-121)
binding: binds
